PubChem BioAssay AID686938, Drosophila RNAi Screening Center, 2013

Screen: 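Fly genes required for calcium entry once internal stores are emptied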 (primary screen)
System: Drosophila S2R+ cells
Reagent: long dsRNA against Drosophila genes, about 0.25 µg dsRNA per well, roughly 10,000 cells
Timing: 5 days of knock-down before the calcium assay
Challenge: thapsigargin (SERCA pump blocker) to empty calcium stores; entry signal taken 4 min after adding it
Read-out: 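Duplicate raw fluo-4 intensities per well from a plate reader, at rest and four minutes after thapsigargin emptied calcium stores; entry-to-rest ratio filled for only some wells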
Direction: calcium entry signal: higher = stronger calcium signal after store depletion; resting calcium signal: higher = higher resting calcium signal
Active means: 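Hit if the duplicate-averaged plate z-score for entry over resting signal is under −3; wells with weak total dye signal (Fmax z < −2) or more than 5 off-targets removed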
Meaning of the calls: active = strongly reduced calcium entry; inactive = no strong reduction
In all, the deposit lists about 23,000 reagents; below is an unselected part of those with a known target gene and a result. Over the whole deposit, 75 (0.33%) are marked active. 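Raw plate signals without normalisation; calls rest on plate z-scores that were not deposited; ratio present for only 364 wells.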 Unmarked entries are inactive. Reagent sequences are not shown. Not stated in the record: the dose of the treatment.

gene	dsRNA	calcium entry signal, replicate 1 (fluorescence units)	calcium entry signal, replicate 2 (fluorescence units)	resting calcium signal, replicate 1 (fluorescence units)	resting calcium signal, replicate 2 (fluorescence units)
PyK	DRSC16806	2.63e7	3.48e7	1.66e7	5.64e7
CG43182	DRSC17668	4.23e7	3.89e7	2.35e7	1.76e7
Cnx14D	DRSC20214	2.18e7	2.55e7	1.22e7	1.17e7
Dyrk2	DRSC03610	5.36e7		2.57e7	
grnd	DRSC02020	5.16e7	3.06e7	2.24e7	1.52e7
CG43063	DRSC12948	2.54e7	2.94e7	1.19e7	1.33e7
CG6996	DRSC10758	1.91e7	3.28e7	1.08e7	1.37e7
Reck	DRSC10504	4.11e7	4.72e7	1.89e7	3.09e7
Reck	DRSC10505	4.38e7	5.05e7	1.97e7	1.80e7
atilla	DRSC02971	3.22e7	2.29e7	1.51e7	1.12e7
Ube4B	DRSC03277	4.20e7		2.15e7	
SdhA	DRSC07547	3.09e7	2.89e7	1.50e7	1.49e7
CG8026	DRSC07055	2.95e7	3.33e7	1.13e7	1.56e7
CG8026	DRSC07056	4.07e7	4.10e7	1.93e7	1.63e7
Kyat	DRSC16147	4.28e7	4.14e7	2.07e7	2.09e7
Cyp6v1	DRSC20565	4.89e7	5.37e7	2.68e7	2.44e7
Rac2	DRSC11262	2.23e7	3.19e7	1.09e7	1.36e7
NtR	DRSC04628	4.02e7	6.22e7	1.94e7	2.63e7
CG14244	DRSC14739	3.25e7	3.37e7	1.73e7	1.46e7
fd3F	DRSC17843	1.44e7	2.50e7	8.44e6	1.37e7
fd3F	DRSC23032	4.11e7	3.59e7	2.06e7	1.68e7
Cyp12a4	DRSC16620	3.47e7	4.19e7	4.42e7	1.71e7
CG31102	DRSC14260	3.01e7	5.22e7	1.68e7	2.30e7
mura	DRSC16483	3.16e7	3.18e7	1.54e7	1.57e7
mura	DRSC16484	1.56e7	1.94e7	1.01e7	1.30e7
mura	DRSC23145	3.32e7	3.92e7	1.75e7	1.85e7
CG11619	DRSC09849	2.00e7	3.19e7	1.04e7	1.51e7
alrm	DRSC14436	3.66e7	5.18e7	1.97e7	2.33e7
Ankle2	DRSC20105	2.64e7	2.90e7	1.24e7	1.34e7
Ankle2	DRSC20106	2.26e7	2.60e7	1.25e7	1.23e7
CG32081	DRSC09861	2.12e7	3.48e7	1.06e7	1.35e7
enok	DRSC04096	3.33e7		1.69e7	
repo	DRSC16369	3.34e7	4.63e7	4.23e7	1.96e7
repo	DRSC23108	4.08e7	3.90e7	1.82e7	1.65e7
CG30466	DRSC05556	6.05e7	5.51e7	3.23e7	2.19e7
Cyp6t3	DRSC07388	2.33e7	3.12e7	1.27e7	1.45e7
CG33232 (retired record)	DRSC08187	4.66e7	3.82e7	2.09e7	1.88e7
CG33232 (retired record)	DRSC08495	4.50e7	5.40e7	2.19e7	2.14e7
CG30001	DRSC05191	3.04e7	6.58e7	1.70e7	2.88e7
Oatp33Eb	DRSC02955	4.16e7	2.90e7	1.81e7	1.37e7
lncRNA:CR32553	DRSC19229	3.65e7	4.05e7	1.78e7	1.96e7
CG10738	DRSC09792	3.05e7	3.37e7	1.65e7	1.69e7
CG13599	DRSC14602	4.45e7	4.17e7	2.13e7	1.78e7
Ubc84D	DRSC12610	4.23e7	2.75e7	2.07e7	1.41e7
CG15203	DRSC19650	3.19e7	4.77e7	1.60e7	2.15e7
CG3517	DRSC15492	4.21e7	4.56e7	5.47e7	2.14e7
CG10472	DRSC09730	3.46e7	2.35e7	2.33e7	1.06e7
nenya	DRSC13838	3.63e7	3.51e7	1.77e7	1.78e7
CG3726	DRSC18320	3.36e7	8.41e7	1.64e7	3.61e7
CG3726	DRSC23143	4.10e7	4.92e7	1.88e7	2.17e7
ProtB	DRSC03373	3.42e7	2.12e7	1.48e7	9.86e6
NimB4	DRSC01884	4.17e7		1.97e7	
Nplp1	DRSC04370	3.64e7		1.72e7	
CG3281	DRSC15470	3.11e7	5.32e7	1.26e7	2.16e7
dpr2	DRSC02370	2.98e7	3.45e7	1.50e7	1.51e7
dpr2	DRSC02371	3.14e7	3.26e7	1.52e7	1.51e7
CG9215	DRSC20171	2.65e7	3.98e7	1.41e7	1.85e7
Ald2	DRSC14730	3.05e7	4.14e7	1.55e7	1.99e7
Ald2	DRSC15799	2.45e7	5.55e7	1.57e7	2.68e7
